Results are given in words; binding and its absence hold for the method and conditions named. In cells and extracts the contact can be indirect. Binding can be weak; no strength is given.
How the values were obtained:
integrin αV (human) [1] = target: integrin αV (human) (UniProt P06756); experiment: GST pull-down and Western blot; co-immunoprecipitation with αV antibody
integrin αV (human) [2] = target: integrin αV (human) (UniProt P06756); experiment: co-immunoprecipitation with αV antibody on protein A agarose, blot with chicken anti PIIBNP (FIGS. 3L and M)

By UniProt entry, the sequences of proteins in these tests, tags left out. Where a name states a change or a piece, a line headed by the entry shows the natural chain unless it says otherwise.
UniProt P06756: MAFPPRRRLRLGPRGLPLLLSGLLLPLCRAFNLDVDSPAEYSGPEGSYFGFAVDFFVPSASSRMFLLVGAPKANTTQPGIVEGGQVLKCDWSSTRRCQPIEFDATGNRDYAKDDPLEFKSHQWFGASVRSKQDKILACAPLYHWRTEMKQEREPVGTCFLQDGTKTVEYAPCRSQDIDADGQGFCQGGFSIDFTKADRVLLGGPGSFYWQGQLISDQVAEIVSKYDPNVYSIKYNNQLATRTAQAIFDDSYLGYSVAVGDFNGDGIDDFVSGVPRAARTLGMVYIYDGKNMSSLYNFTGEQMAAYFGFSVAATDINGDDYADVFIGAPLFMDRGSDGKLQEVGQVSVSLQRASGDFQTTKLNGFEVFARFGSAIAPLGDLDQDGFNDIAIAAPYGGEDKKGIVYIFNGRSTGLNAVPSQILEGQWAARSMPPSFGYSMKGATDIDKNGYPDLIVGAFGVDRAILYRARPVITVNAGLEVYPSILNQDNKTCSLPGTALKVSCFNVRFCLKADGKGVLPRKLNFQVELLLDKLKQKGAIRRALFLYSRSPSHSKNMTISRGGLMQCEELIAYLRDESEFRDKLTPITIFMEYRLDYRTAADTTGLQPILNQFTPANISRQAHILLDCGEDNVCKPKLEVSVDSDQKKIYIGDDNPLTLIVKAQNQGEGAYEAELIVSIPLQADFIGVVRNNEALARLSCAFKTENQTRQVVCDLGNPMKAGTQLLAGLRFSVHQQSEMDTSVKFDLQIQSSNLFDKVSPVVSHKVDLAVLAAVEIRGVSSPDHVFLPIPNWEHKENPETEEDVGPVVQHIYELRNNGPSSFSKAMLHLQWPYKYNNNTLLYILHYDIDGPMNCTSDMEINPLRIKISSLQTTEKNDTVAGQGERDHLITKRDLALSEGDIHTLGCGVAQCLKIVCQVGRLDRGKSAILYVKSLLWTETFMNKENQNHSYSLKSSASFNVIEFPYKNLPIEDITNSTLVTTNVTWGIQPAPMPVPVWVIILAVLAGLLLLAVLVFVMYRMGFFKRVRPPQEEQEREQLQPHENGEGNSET

Substance: GST-PIIBNP (GST fusion of human Type IIB collagen amino propeptide, exons 3-8) (from UniProt P02458 30-134) (ligand)
- binding (integrin αV (human) [1]): binds
- binding (integrin αV (human) [2]): binds

From patent publication US7851436
